# The other results are listed elsewhere or left out. These are further read-outs of the screen, such as a control signal, another cell line or another target. No call is given for them. Most of these compounds were active or inconclusive in the main read-out, so they are no random draw. Potencies come from curve fits of mixed quality, noted in brackets.
# Test: qHTS Assay for Lipid Storage Modulators in Drosophila S3 Cells;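 for cell number change: cells counted by Cell Tracker Red CMTPX staining in the red channel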
# Details: BODIPY lipid droplet fluorescence, 18-24 h; for cell number change: measured here: cell count max response, cells fed with added oleic acid
# Procedure, shortened: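 Laser-scanning cytometry quantifies lipid droplet accumulation (500–530 nm total intensity; droplet/cell object ratio) in oleic acid-fed (400 uM added) Drosophila S3 cells treated with a concentration series. 20 uM Triacsin C defined 100% inhibition.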
# [1] = measured here: lipid fluorescence (Fed channel) AC50, cells fed with added oleic acid
# [2] = measured here: cell number channel AC50, cells fed with added oleic acid
SMILES,cell number change [%],AC50 [1],AC50 [2]
Cc1ccc(C(=O)N2CCCC(Nc3ccc(F)c(F)c3)C2)cn1 (stereo not drawn),2.55,"6.51 µM [rising, single point]",–
CC1(C)CC(=O)C(C2c3ccccc3S(=O)(=O)c3ccccc32)C(=O)C1,-25.2,"0.146 µM [falling, full curve, poor fit]","0.13 µM [falling, full curve, poor fit]"
COc1ccc(Br)cc1S(=O)(=O)N1CCN=C1c1ccccc1,1.7,"0.58 µM [falling, single point]",–
Cc1cc(C)c(C)c(S(=O)(=O)NC(C(=O)NCCc2ccco2)C(C)C)c1C (stereo not drawn),-13.3,"0.0058 µM [rising, full curve, poor fit]",–
C#CCOCCOCCOCCNc1nc(N2CCN(C(=O)[C@H]([C@@H](C)CC)n3cc(CCCCN)nn3)CC2)nc(N2CCN(C(=O)[C@H](CCCCN)n3cc(CCCC)nn3)CC2)n1,-40,"2.59 µM [falling, full curve]","4.11 µM [falling, full curve, poor fit]"
Cc1nn(CC(=O)N2c3ccccc3NC(=O)C2(C)C)c(C)c1[N+](=O)[O-],71,"20.6 µM [rising, partial curve]","0.231 µM [rising, full curve]"
Cc1cccc(NC(=O)c2cccnc2)c1,–,"18.4 µM [rising, single point]",–
COc1ccc2nc(N3C(=O)CC(Cc4ccc(Cl)cc4)C3=O)sc2c1 (stereo not drawn),24.8,"29.1 µM [rising, single point]",–
CCc1nc(SCC(=O)NCc2ccc(F)cc2)c2c(=O)n(C)c(=O)n(C)c2n1,43.1,–,"0.00461 µM [rising, full curve, poor fit]"
Cc1ccc(-n2nc3c(N4CCC(C(=O)NCCc5ccco5)CC4)nnc(C)c3c2C)cc1,80.2,"0.58 µM [rising, single point]","23.1 µM [rising, single point]"
Cc1ccc(NC(=O)OCc2ccccc2S(C)=O)cc1 (stereo not drawn),-1.43,"0.58 µM [rising, single point]",–
CCOC(=O)C1(Cc2cccc(Cl)c2)CCCN(C(=O)c2cc(CC)on2)C1 (stereo not drawn),–,"4.61 µM [falling, single point]",–
Nc1cccc2c1C(=O)N(CC(=O)NC13CC4CC(CC(C4)C1)C3)C2=O,-40.4,"14.6 µM [falling, partial curve]","8.2 µM [falling, partial curve, poor fit]"
O=C(CCN1C(=O)C2C3C=CC(C3)C2C1=O)N1CCN(c2ccc(F)cc2)CC1 (stereo not drawn),7.23,"23.1 µM [rising, single point]",–
CCCCC(=O)Nc1cccc(NC(=O)C(C)C)c1,–,"4.11 µM [rising, partial curve]",–
CNc1nc(SCc2ccccc2)nc(N2CCOCC2)n1,303,"3.66 µM [rising, partial curve]","13 µM [rising, partial curve]"
COc1cccc(-c2cc(=O)c3cc(NC(=O)c4ccc(N(C)C)cc4)ccc3[nH]2)c1,-53.9,"20.6 µM [falling, partial curve]","25.9 µM [falling, partial curve]"
S=c1[nH]nc(Cc2sc(-c3ccccc3)nc2-c2ccccc2)o1,–,–,"6.51 µM [rising, single point]"
Cc1cc(C)n(CCNC(=O)c2cc(COc3c(F)cccc3F)on2)n1,-15.9,"0.103 µM [falling, full curve, poor fit]",–
COc1ccc(S(=O)(=O)N2CCCCC2)cc1C(=O)N1CCCC1,26.9,"8.2 µM [rising, partial curve]",–

SMILES,cell number change [%],AC50 [1],AC50 [2]
COc1cc(/C=N/NC(=O)C(C)n2nnc3ccccc32)ccc1O (stereo not drawn),–,"0.103 µM [rising, full curve, poor fit]",–
COc1ccccc1C(c1nnnn1CS(=O)(=O)c1ccc(C)cc1)N1CCSCC1 (stereo not drawn),-9.12,"5.17 µM [rising, partial curve]",–
O=C(Nc1cccnc1)Nc1ccc(F)c(Cl)c1,3.2,"29.1 µM [rising, single point]","2.91 µM [rising, single point]"
CCc1ccc(N(C(=O)CNC(=O)c2cccs2)C(C(=O)NC(C)(C)C)c2cc(OC)c(OC)c(OC)c2)cc1 (stereo not drawn),11.5,"2.06 µM [rising, partial curve]",–
CCOc1ccc(N2C(N)=NC(N)=NC2(C)C)cc1,-31.5,"23.1 µM [falling, single point]","29.1 µM [falling, single point]"
CC(C)c1ccc(Cc2nnc(NCCCO)[nH]c2=O)cc1,-7.75,"23.1 µM [rising, single point]",–
CCc1ccc(OCC(=O)NC(NC(=S)Nc2ccc(C)cc2C)C(Cl)(Cl)Cl)cc1 (stereo not drawn),-22.5,"18.4 µM [falling, partial curve]",–
CN(Cc1ccc(F)cc1Cl)S(=O)(=O)c1cccs1,-2.56,"10.3 µM [rising, partial curve]",–
Cc1ccc(-c2oc3ncnc(N)c3c2-c2ccc(C)cc2)cc1,–,"0.58 µM [rising, single point]",–
Nc1ccc(C(=O)Nc2nc3ccccc3s2)cc1,–,"0.731 µM [rising, partial curve]","0.326 µM [rising, full curve, poor fit]"
CCOc1ccc(CN(C)CC(=O)Nc2ccc3c(c2)CCC3)cc1OC,-11.4,"29.1 µM [falling, single point]",–
Cc1nc(Cl)sc1C(=O)Nc1cc(F)cc(F)c1,-16.4,–,–
COc1ccc(CNC(=O)Nc2cccc(Cl)c2)cc1,14.5,–,–
Cc1ccc(-c2oc3ccccc3c(=O)c2OCC(=O)O)cc1,-33.7,–,"1.16 µM [falling, full curve, poor fit]"
O=C(CSC1=NCCS1)N1CCCCCC1,–,"0.0058 µM [falling, full curve, poor fit]",–
CC(C)COc1ccc(C(=O)N/C(=C\c2cccc([N+](=O)[O-])c2)C(=O)OC(C)C)cc1,-10.8,"16.4 µM [falling, single point]",–
O=C(CCN=C1NS(=O)(=O)c2ccccc21)OCC(=O)c1ccc(F)c(F)c1,-36.2,–,"23.1 µM [falling, single point]"
CCNc1ccc(Br)cc(C(=O)/C=C/c2ccc(Cl)cc2Cl)c1=O,-59.5,"18.4 µM [falling, partial curve]","16.4 µM [falling, partial curve]"
O=C(NC1CCCCC1)NC1CC2CCC(C1)N2C(=O)NC1CCCCC1 (stereo not drawn),–,–,"0.58 µM [falling, full curve, poor fit]"
CCN(C(=O)CN1C(=O)S/C(=C\c2cccc(Cl)c2)C1=O)C1CCS(=O)(=O)C1 (stereo not drawn),-24.3,"0.146 µM [falling, full curve, poor fit]",–

# Structures listed so far containing an aryl thioether with sulfur outside any ring:
SMILES,cell number change [%],AC50 [1],AC50 [2]
CCc1nc(SCC(=O)NCc2ccc(F)cc2)c2c(=O)n(C)c(=O)n(C)c2n1,43.1,–,"0.00461 µM [rising, full curve, poor fit]"
CNc1nc(SCc2ccccc2)nc(N2CCOCC2)n1,303,"3.66 µM [rising, partial curve]","13 µM [rising, partial curve]"

# More results:

SMILES,cell number change [%],AC50 [1],AC50 [2]
COCCNc1ccc(N2C(=O)CCCC2=O)cc1[N+](=O)[O-],9.92,"3.66 µM [rising, single point]",–
Cn1c(C(=O)OC(C(=O)NC2CCCC2)c2ccncc2)cc2sccc21 (stereo not drawn),-15.4,"0.731 µM [rising, partial curve]",–
O=C(COc1ccc2c3c(c(=O)oc2c1)CCC3)Nc1ccccn1,0.567,"1.16 µM [falling, full curve, poor fit]",–
Cc1ccccc1CN1CCNC(=O)C1CC(=O)N(C)CCC1CCOCC1 (stereo not drawn),11.6,–,"6.51 µM [rising, single point]"
CC1CCN(C(=O)CCS(=O)(=O)c2cc3c(cc2Cl)NC(=O)CO3)CC1,-7.49,–,–
Cc1ccc(-n2c(-c3cccnc3)n[nH]c2=S)c(C)c1,49,"0.259 µM [rising, full curve, poor fit]","0.164 µM [rising, full curve, poor fit]"
COc1ccc(C(=O)OCC(=O)NC2CCCCCC2)cc1OC,-7.89,"6.51 µM [falling, single point]",–
Cc1csc(Nc2ccccc2)[n+]1-c1ccccc1,-22.4,"0.326 µM [falling, full curve]",–
COc1ccc(CNC(=O)C(=O)c2cn(CC(=O)N3CCOCC3)c3ccccc23)cc1,8.55,"6.51 µM [rising, single point]",–
O=C(CN1CCc2ccccc2C1)Nc1cc(S(=O)(=O)N2CCOCC2)ccc1N1CCOCC1,31.1,"3.66 µM [falling, partial curve]","0.116 µM [rising, full curve, poor fit]"
COc1ccc(NC(=O)c2nc(C)n(-c3ccc([N+](=O)[O-])cc3)n2)cc1,16.7,–,–
COc1cc(CNc2ncc(-c3ccc(Br)cc3)n2C)cc(OC)c1O,-0.587,"6.51 µM [rising, single point]",–
CCN1CCN(c2c(Cl)cccc2NC(=O)c2cccs2)CC1,8.65,"16.4 µM [falling, single point]",–
CCOc1ccc(S(=O)(=O)NCCC(=O)NCCOc2ccccc2OC)cc1,27.4,"7.31 µM [rising, partial curve]",–
Cc1ccc(NC(=O)CC2SCCNC2=O)cc1Cl (stereo not drawn),14.3,"29.1 µM [rising, single point]",–
Cc1ccccc1NC(=O)c1ccno1,2.63,–,–
CNC(=S)N/N=C(\C)c1ccc2c(c1)OCO2,–,–,"3.66 µM [rising, single point]"
O=C(NCc1cccc(Cl)c1)c1cccnc1,10.5,–,–

# Reference: PubChem BioAssay AID2685 (National Center for Advancing Translational Sciences (NCATS), 2010)
